The source of these data is paper PMC2980477.

The chains behind the UniProt entries cited, without tags or fusion partners.
UniProt P06239: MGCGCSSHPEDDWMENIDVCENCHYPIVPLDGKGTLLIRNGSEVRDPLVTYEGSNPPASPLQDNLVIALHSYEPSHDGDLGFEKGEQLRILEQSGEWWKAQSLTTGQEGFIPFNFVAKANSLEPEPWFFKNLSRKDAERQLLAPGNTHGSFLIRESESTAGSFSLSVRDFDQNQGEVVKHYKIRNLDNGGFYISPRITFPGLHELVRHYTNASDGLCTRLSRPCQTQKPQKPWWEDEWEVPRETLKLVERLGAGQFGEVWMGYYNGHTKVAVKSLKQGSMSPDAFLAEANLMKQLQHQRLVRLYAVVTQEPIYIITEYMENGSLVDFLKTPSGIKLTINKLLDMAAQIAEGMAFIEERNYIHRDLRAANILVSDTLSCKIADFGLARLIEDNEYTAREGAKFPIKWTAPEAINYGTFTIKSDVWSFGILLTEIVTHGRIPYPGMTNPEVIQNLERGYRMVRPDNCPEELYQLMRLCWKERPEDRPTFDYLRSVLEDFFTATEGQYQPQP
UniProt P43403: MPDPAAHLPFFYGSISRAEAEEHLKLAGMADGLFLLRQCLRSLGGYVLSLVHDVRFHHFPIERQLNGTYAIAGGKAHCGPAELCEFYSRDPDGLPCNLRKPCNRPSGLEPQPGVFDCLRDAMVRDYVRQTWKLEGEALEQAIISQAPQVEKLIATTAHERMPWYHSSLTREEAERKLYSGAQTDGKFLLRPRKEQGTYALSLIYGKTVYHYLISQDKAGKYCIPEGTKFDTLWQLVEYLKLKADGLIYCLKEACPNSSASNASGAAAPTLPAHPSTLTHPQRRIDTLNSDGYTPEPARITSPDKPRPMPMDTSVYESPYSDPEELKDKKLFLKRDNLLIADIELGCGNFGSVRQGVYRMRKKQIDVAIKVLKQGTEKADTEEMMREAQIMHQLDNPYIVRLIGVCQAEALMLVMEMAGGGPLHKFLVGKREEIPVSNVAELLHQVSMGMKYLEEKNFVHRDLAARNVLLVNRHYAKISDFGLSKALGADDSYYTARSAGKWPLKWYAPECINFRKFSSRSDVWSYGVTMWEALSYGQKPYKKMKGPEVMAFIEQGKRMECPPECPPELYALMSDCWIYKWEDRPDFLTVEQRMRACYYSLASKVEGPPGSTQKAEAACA

No constants are given. Whether binding was seen depends on the method and setting. In cells and extracts the contact can be indirect. Some entries that bind do so weakly or less than the wild type. For part of these data: Tags and fused reporters may be left off the sequences shown.

Assay [1] addresses CD3ζ (human (endogenous in Jurkat)) (UniProt P20963). Put plainly: co-IP; Jurkat T cells expressing HA-RhoH, stimulated or not with anti-CD3ε antibody, fractionated into cytosol, detergent-soluble and detergent-insoluble membrane fractions; IP with anti-ZAP-70, anti-Lck or anti-CD3ζ; immunoblot.
Assay [2] concerns the target Lck (human (endogenous in Jurkat)) (UniProt P06239). The description is as above.
Assay [3] concerns the target CD3ζ (human (endogenous in Jurkat)) (UniProt P20963). Kind of assay: co-IP; total lysates of Jurkat T cells expressing HA-RhoH and transfected with EGFP, CA-Lck, KD-Lck, AA-ZAP-70 or KA-ZAP-70; IP with anti-ZAP-70, anti-Lck or anti-HA; immunoblot. Background: In western blotting, separated proteins are transferred to a membrane and probed.
In assay [4] the target is Lck (human (endogenous in Jurkat)) (UniProt P06239). Described as above.
In assay [5] the target is ZAP-70 (human (endogenous in Jurkat)) (UniProt P43403). Put plainly: co-IP; Jurkat T cells expressing HA-RhoH, stimulated or not with anti-CD3ε antibody, fractionated into cytosol, detergent-soluble and detergent-insoluble membrane fractions; IP with anti-ZAP-70, anti-Lck or anti-CD3ζ; immunoblot.
Assay [6] addresses ZAP-70 (human) (UniProt P43403). Put plainly: condition: only co-expressed with kinase-dead Lck (KD-Lck); co-IP; total lysates of HEK293 cells co-transfected with HA-RhoH, kinase-dead Lck (KD-Lck) and ZAP-70; IP with anti-ZAP-70 or anti-HA; immunoblot.
The target is the same in assay [7]. Put plainly: co-IP; total lysates of HEK293 cells transfected with combinations of HA-RhoH, CA-Lck and ZAP-70 or KA-ZAP-70; IP with anti-HA or anti-ZAP-70; immunoblot.
Assay [8] has as its target ZAP-70 (human (endogenous in Jurkat)) (UniProt P43403). Kind of assay: co-IP; total lysates of Jurkat T cells expressing HA-RhoH and transfected with EGFP, CA-Lck, KD-Lck, AA-ZAP-70 or KA-ZAP-70; IP with anti-ZAP-70, anti-Lck or anti-HA; immunoblot.
For assay [9], the target named is Lck (mouse (endogenous in thymocytes and lymph node T cells)), P06240. Kind of assay: co-IP; total lysates of thymocytes and lymph node T cells of wild type and Rhoh-/- mice, unstimulated or stimulated with anti-CD3/28 Abs for 2 min; IP of Lck, immunoblot for CD3ζ. As to conditions: remark: other sources report otherwise.

ZAP-70 (from UniProt P43403 1-619): the binding entry in assay [1], in assay [2], in [3] and in [4] was “binds” throughout.

B1: HA-RhoH (protein, UniProt Q15669 1-191)
chain: MLSSIKCVLVGDSAVGKTSLLVRFTSETFPEAYKPTVYENTGVDVFMDGIQISLGLWDTAGNDAFRSIRPLSYQQADVVLMCYSVANHNSFLNLKNKWIGEIRSNLPCTPVLVVATQTDQREMGPHRASCVNAMEGKKLAQDVRAKGYLECSALSNRGVQQVFECAVRTAVNQARRRNRRRLFSINECKIF
Turning to B1, the binding entry in [5] is given as “binds”; in the assay with ZAP-70 (human) [6] it was “no binding”; with ZAP-70 (human) [7] it was “binds”; in assay [8], “binds”.

B2: CD3ζ, P24161-1 22-164 (protein)
chain: QSFGLLDPKLCYLLDGILFIYGVIITALYLRAKFSRSAETAANLQDPNQLYNELNLGRREEYDVLEKKRARDPEMGGKQQRRRNPQEGVYNALQKDKMAEAYSEIGTKGERRRGKGHDGLYQGLSTATKDTYDALHMQTLAPR
For the molecule B2, the binding result in [9] is on record as “binds”.
